Experimental data: PubChem BioAssay AID1259254 (NCATS, 2017)

- Purpose: 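Genome-wide screen for genes that prevent DNA re-replication in cancer cells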 (primary screen)
- System: human HCT116 colorectal cancer cells
- Reagent: single siRNA against human genes
- Time to read-out: 3 days
- Detection: 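Imaged Hoechst DNA stain sorts each cell into a cycle phase by DNA amount; per plate, G2 fraction set to 0% for non-targeting and 100% for GMNN siRNA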
- Scale: G2 robust z-score and G2 cells, % of GMNN control: higher = more G2 cells, more excess DNA replication; raw share of cells in G2: higher = larger share of cells with G2 DNA content
- Call rule: 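Active siRNAs have a G2 robust z of 5 or more median absolute deviations over the median, which in these data means about 38% or higher of GMNN control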
This is an unselected part of about 59,000 deposited reagents. About 1,550 of them (2.6%) were called active. 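G2 share is only a proxy for re-replication; each gene was hit by three separate siRNAs, and active genes were retested.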 Raw values vary from plate to plate and are shown uncorrected. Entries without a mark were called inactive. The numbers tell different reagents against one gene apart. The record does not give: the amount of reagent.

target gene,reagent,G2 robust z-score,"G2 cells, % of GMNN control",raw share of cells in G2 (%)
KCNJ12 (potassium inwardly rectifying channel subfamily J member 12),1,1.15,11.1,9.31
KCNJ12 (potassium inwardly rectifying channel subfamily J member 12),2,2.31,19.2,11.3
KCNJ12 (potassium inwardly rectifying channel subfamily J member 12),3,-0.698,-1.95,3.62
SCARB1 (scavenger receptor class B member 1),1,4.98,38,17.2
SCARB1 (scavenger receptor class B member 1),2,-0.343,0.555,5.2
SCARB1 (scavenger receptor class B member 1),3,5.2 (active),39.6,19.1
FNDC10 (fibronectin type III domain containing 10),1,-1.06,-4.49,1.84
FNDC10 (fibronectin type III domain containing 10),2,2.08,17.6,10.3
FNDC10 (fibronectin type III domain containing 10),3,6.07 (active),45.7,19.7
"A4GALT (alpha 1,4-galactosyltransferase (P1PK blood group))",1,-0.709,-2.02,3.02
"A4GALT (alpha 1,4-galactosyltransferase (P1PK blood group))",2,1.2,11.4,11.1
"A4GALT (alpha 1,4-galactosyltransferase (P1PK blood group))",3,0.416,5.89,6.42
CNKSR3 (CNKSR family member 3),1,-0.848,-3,4.65
CNKSR3 (CNKSR family member 3),2,-1.35,-6.55,2.81
CNKSR3 (CNKSR family member 3),3,-1.49,-7.48,1.29
ZNF148 (zinc finger protein 148),1,0.482,6.36,6.63
ZNF148 (zinc finger protein 148),2,2.46,20.2,11.1
ZNF148 (zinc finger protein 148),3,-0.918,-3.49,4.12
NLRC5 (NLR family CARD domain containing 5),1,1.08,10.6,7.63
NLRC5 (NLR family CARD domain containing 5),2,0.073,3.48,4.49
NLRC5 (NLR family CARD domain containing 5),3,-0.632,-1.48,1.96

Next part, starting with the last 2 of the part before.
target gene,reagent,G2 robust z-score,"G2 cells, % of GMNN control",raw share of cells in G2 (%)
NLRC5 (NLR family CARD domain containing 5),2,0.073,3.48,4.49
NLRC5 (NLR family CARD domain containing 5),3,-0.632,-1.48,1.96
NHLH1 (nescient helix-loop-helix 1),1,-0.897,-3.34,2.09
NHLH1 (nescient helix-loop-helix 1),2,1.92,16.5,12
NHLH1 (nescient helix-loop-helix 1),3,-0.078,2.42,6.3
SEMA4C (semaphorin 4C),1,-0.189,1.64,5.03
SEMA4C (semaphorin 4C),2,3.78,29.5,16.7
SEMA4C (semaphorin 4C),3,0.939,9.58,10.6
MAP1B (microtubule associated protein 1B),1,0.133,3.9,4.48
MAP1B (microtubule associated protein 1B),2,0.355,5.47,7.47
MAP1B (microtubule associated protein 1B),3,-0.745,-2.28,4.57
KCNC1 (potassium voltage-gated channel subfamily C member 1),1,-0.773,-2.47,4.39
KCNC1 (potassium voltage-gated channel subfamily C member 1),2,-0.471,-0.345,4.67
KCNC1 (potassium voltage-gated channel subfamily C member 1),3,1.92,16.5,10.8
RPL9 (ribosomal protein L9),1,6.86 (active),51.2,26.8
RPL9 (ribosomal protein L9),2,0.0905,3.6,5.65
RPL9 (ribosomal protein L9),3,-0.385,0.26,3.45
TMEM270 (transmembrane protein 270),1,-0.272,1.05,3.42
TMEM270 (transmembrane protein 270),2,-1.2,-5.5,2.19
TMEM270 (transmembrane protein 270),3,2.38,19.7,10.1
HS3ST3A1 (heparan sulfate-glucosamine 3-sulfotransferase 3A1),1,0.21,4.44,4.72
HS3ST3A1 (heparan sulfate-glucosamine 3-sulfotransferase 3A1),2,0.0647,3.42,6.14
HS3ST3A1 (heparan sulfate-glucosamine 3-sulfotransferase 3A1),3,-0.562,-0.985,4.83
SELENOV (selenoprotein V),1,0.716,8.01,6.74
SELENOV (selenoprotein V),2,0.157,4.07,5.04
SELENOV (selenoprotein V),3,1.16,11.1,8.67
MTCH1,1,1.31,12.2,11.7
MTCH1,2,-1.21,-5.55,2.17
MTCH1,3,3.41,26.9,13.1
